Experimental findings from ChEMBL document CHEMBL3108738, “The chemical and biological potential of C ring modified triterpenoids” (Eur J Med Chem, 2014) are described below.

The assay concerns A549. Briefly: Cytotoxicity against human A549 cells after 96 hrs by SRB assay. The format is functional, cell-based. Conditions: A549, 96 h. (In general: Sulforhodamine B stains cellular protein and so reports cell mass.)

As for `CN[C@@H]1C[C@H]2O[C@@](C)([C@@H]1OC)n1c3ccccc3c3c4c(c5c6ccccc6n2c5c31)C(=O)NC4` [STAUROSPORINE], the IC50 – broadly, the concentration at which inhibition is half-maximal – came to 600 nM.
